# Assay results taken from the supplement of paper PMC8728848.
# This is one part of the list.
# B1: Intelectin-1a (Mus musculus) (protein)
# chain: AEWSHPQFEKAEENLDTNRWGNSFFSSLPRSCKEIKQEHTKAQDGLYFLRTKNGVIYQTFCDMTTAGGGWTLVASVHENNMRGKCTVGDRWSSQQGNRADYPEGDGNWANYNTFGSAEAATSDDYKNPGYFDIQAENLGIWHVPNKSPLHNWRKSSLLRYRTFTGFLQHLGHNLFGLYKKYPVKYGEGKCWTDNGPALPVVYDFGDARKTASYYSPSGQREFTAGYVQFRVFNNERAASALCAGVRVTGCNTEHHCIGGGGFFPEGNPVQCGDFASFDWDGYGTHNGYSSSRKITEAAVLLFYR
# How the values were obtained:
# Assay in all cases: glycan array binding signal (z-score within array); higher = stronger binding
# Settings in all cases: glycan notation: IUPAC condensed, linker removed
# [1] = molecular target: GalNAc(a1-3)GalNAc(b1-3)Gal(a1-4)Gal(b1-4)GlcNAc
# In short: (§1)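 The Consortium for Functional Glycomics database supplied 3228 glycan arrays, of which those lacking an available protein sequence were dropped. The binding signal, a within-array Z-score, was averaged across arrays of the same protein sequence and across linkers. Negative scores can be read as non-binding.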
# GalNAc(b1-3)Gal = molecular target: GalNAc(b1-3)Gal
# In short: as §1
# [2] = molecular target: GalNAc(b1-3)Gal(a1-4)Gal(b1-4)GlcNAc
# In short: as §1
# [3] = molecular target: GalNAc(b1-3)Gal(a1-4)Gal(b1-4)GlcNAc(b1-3)Gal(b1-4)Glc
# In short: as §1
# [4] = molecular target: GalNAc(b1-3)Gal(a1-6)Gal(b1-4)Glc
# In short: as §1
# GalNAc(b1-3)GalNAc = molecular target: GalNAc(b1-3)GalNAc
# In short: as §1
# GalNAc(b1-4)Gal(b1-4)Glc = molecular target: GalNAc(b1-4)Gal(b1-4)Glc
# In short: as §1
# GalNAc(b1-4)GlcNAc = molecular target: GalNAc(b1-4)GlcNAc
# In short: as §1
# [5] = molecular target: GalNAc(b1-4)GlcNAc(b1-2)Man(a1-3)[GalNAc(b1-4)GlcNAc(b1-2)Man(a1-6)]Man(b1-4)GlcNAc(b1-4)GlcNAc
# In short: as §1
# GalNAc(b1-4)GlcNAc6S = molecular target: GalNAc(b1-4)GlcNAc6S
# In short: as §1
# GalNAc(b1-6)GalNAc = molecular target: GalNAc(b1-6)GalNAc
# In short: as §1
# GalNAc3S(b1-4)GlcNAc = molecular target: GalNAc3S(b1-4)GlcNAc
# In short: as §1
# GalNAc3S(b1-4)GlcNAc3S = molecular target: GalNAc3S(b1-4)GlcNAc3S
# In short: as §1
# GalNAc4S6S(b1-4)GlcNAc = molecular target: GalNAc4S6S(b1-4)GlcNAc
# In short: as §1
# GalNAc6S(b1-4)GlcNAc = molecular target: GalNAc6S(b1-4)GlcNAc
# In short: as §1
# Glc(a1-4)Glc = molecular target: Glc(a1-4)Glc
# In short: as §1
# [6] = molecular target: Glc(a1-4)Glc(a1-4)Glc(a1-4)Glc
# In short: as §1
# Glc(a1-6)Glc(a1-6)Glc = molecular target: Glc(a1-6)Glc(a1-6)Glc
# In short: as §1
# [7] = molecular target: Glc(a1-6)Glc(a1-6)Glc(a1-6)Glc
# In short: as §1
# Glc(b1-4)Glc = molecular target: Glc(b1-4)Glc
# In short: as §1
# Glc(b1-6)Glc = molecular target: Glc(b1-6)Glc
# In short: as §1
# GlcA(b1-3)Gal = molecular target: GlcA(b1-3)Gal
# In short: as §1
# GlcA(b1-3)GlcNAc = molecular target: GlcA(b1-3)GlcNAc
# In short: as §1
# GlcA(b1-6)Gal = molecular target: GlcA(b1-6)Gal
# In short: as §1
# [8] = molecular target: GlcNAc(a1-3)Gal(b1-4)GlcNAc
# In short: as §1
# [9] = molecular target: GlcNAc(a1-4)Gal(b1-3)GlcNAc
# In short: as §1
# [10] = molecular target: GlcNAc(a1-4)Gal(b1-4)GalNAc
# In short: as §1
# [11] = molecular target: GlcNAc(a1-4)Gal(b1-4)GlcNAc
# In short: as §1
# [12] = molecular target: GlcNAc(a1-4)Gal(b1-4)GlcNAc(b1-3)Gal(b1-4)Glc
# In short: as §1
# [13] = molecular target: GlcNAc(a1-4)Gal(b1-4)GlcNAc(b1-3)Gal(b1-4)GlcNAc
# In short: as §1
# [14] = molecular target: GlcNAc(a1-4)Gal(b1-4)GlcNAc(b1-3)Gal(b1-4)GlcNAc(b1-3)Gal(b1-4)GlcNAc
# In short: as §1
# [15] = molecular target: GlcNAc(a1-4)Gal(b1-4)GlcNAc(b1-3)Gal(b1-4)[Fuc(a1-3)]GlcNAc(b1-3)Gal(b1-4)[Fuc(a1-3)]GlcNAc
# In short: as §1
# [16] = molecular target: GlcNAc(a1-6)Gal(b1-4)GlcNAc
# In short: as §1
# [17] = molecular target: GlcNAc(b1-2)Gal(b1-3)GalNAc
# In short: as §1
# [18] = molecular target: GlcNAc(b1-2)Man(a1-3)[GlcNAc(b1-2)Man(a1-6)]Man(b1-4)GlcNAc(b1-4)GlcNAc
# In short: as §1
# [19] = molecular target: GlcNAc(b1-2)Man(a1-3)[GlcNAc(b1-2)Man(a1-6)]Man(b1-4)GlcNAc(b1-4)[Fuc(a1-6)]GlcNAc
# In short: as §1
# [20] = molecular target: GlcNAc(b1-2)Man(a1-3)[GlcNAc(b1-4)][GlcNAc(b1-2)Man(a1-6)]Man(b1-4)GlcNAc(b1-4)GlcNAc
# In short: as §1
binder,measurement,setting,value
B1,glycan array binding signal (z-score),[1],-1.22
same,glycan array binding signal (z-score),GalNAc(b1-3)Gal,-0.938
same,glycan array binding signal (z-score),[2],-0.267
same,glycan array binding signal (z-score),[3],0.026
same,glycan array binding signal (z-score),[4],0.658
same,glycan array binding signal (z-score),GalNAc(b1-3)GalNAc,0.779
same,glycan array binding signal (z-score),GalNAc(b1-4)Gal(b1-4)Glc,-0.303
same,glycan array binding signal (z-score),GalNAc(b1-4)GlcNAc,0.361
same,glycan array binding signal (z-score),[5],0.434
same,glycan array binding signal (z-score),GalNAc(b1-4)GlcNAc6S,1.21
same,glycan array binding signal (z-score),GalNAc(b1-6)GalNAc,-0.946
same,glycan array binding signal (z-score),GalNAc3S(b1-4)GlcNAc,0.183
same,glycan array binding signal (z-score),GalNAc3S(b1-4)GlcNAc3S,-0.587
same,glycan array binding signal (z-score),GalNAc4S6S(b1-4)GlcNAc,0.122
same,glycan array binding signal (z-score),GalNAc6S(b1-4)GlcNAc,0.284
same,glycan array binding signal (z-score),Glc(a1-4)Glc,-0.363
same,glycan array binding signal (z-score),[6],-0.365
same,glycan array binding signal (z-score),Glc(a1-6)Glc(a1-6)Glc,-0.027
same,glycan array binding signal (z-score),[7],-0.709
same,glycan array binding signal (z-score),Glc(b1-4)Glc,2.2
same,glycan array binding signal (z-score),Glc(b1-6)Glc,-0.107
same,glycan array binding signal (z-score),GlcA(b1-3)Gal,0.662
same,glycan array binding signal (z-score),GlcA(b1-3)GlcNAc,-0.766
same,glycan array binding signal (z-score),GlcA(b1-6)Gal,0.449
same,glycan array binding signal (z-score),[8],-0.597
same,glycan array binding signal (z-score),[9],0.388
same,glycan array binding signal (z-score),[10],0.731
same,glycan array binding signal (z-score),[11],0.718
same,glycan array binding signal (z-score),[12],-0.164
same,glycan array binding signal (z-score),[13],-0.503
same,glycan array binding signal (z-score),[14],1.47
same,glycan array binding signal (z-score),[15],5.84
same,glycan array binding signal (z-score),[16],-0.329
same,glycan array binding signal (z-score),[17],1.57
same,glycan array binding signal (z-score),[18],0.445
same,glycan array binding signal (z-score),[19],2.36
same,glycan array binding signal (z-score),[20],-0.689
